Assay [1] has as its target His-tagged γ-subunit of RNA polymerase core (Synechocystis sp. PCC 6803) (UniProt P74177). The assay is described as follows: pull-down; His-tagged RNAP complexes collected with Dynabeads HIS-Tag Isolation and Pulldown Kit from 900 μg soluble protein fraction of WT-RNAP-HIS and ΔssaA-RNAP-HIS cells; standard conditions, 6 d nitrogen depletion, and 1 h, 4 h, 22 h recovery after nitrogen addition; SDS-PAGE and immunoblot, σ factor content normalized to α or β subunit.

Amino acid sequences for entries named in this document (tags omitted).
UniProt P74177: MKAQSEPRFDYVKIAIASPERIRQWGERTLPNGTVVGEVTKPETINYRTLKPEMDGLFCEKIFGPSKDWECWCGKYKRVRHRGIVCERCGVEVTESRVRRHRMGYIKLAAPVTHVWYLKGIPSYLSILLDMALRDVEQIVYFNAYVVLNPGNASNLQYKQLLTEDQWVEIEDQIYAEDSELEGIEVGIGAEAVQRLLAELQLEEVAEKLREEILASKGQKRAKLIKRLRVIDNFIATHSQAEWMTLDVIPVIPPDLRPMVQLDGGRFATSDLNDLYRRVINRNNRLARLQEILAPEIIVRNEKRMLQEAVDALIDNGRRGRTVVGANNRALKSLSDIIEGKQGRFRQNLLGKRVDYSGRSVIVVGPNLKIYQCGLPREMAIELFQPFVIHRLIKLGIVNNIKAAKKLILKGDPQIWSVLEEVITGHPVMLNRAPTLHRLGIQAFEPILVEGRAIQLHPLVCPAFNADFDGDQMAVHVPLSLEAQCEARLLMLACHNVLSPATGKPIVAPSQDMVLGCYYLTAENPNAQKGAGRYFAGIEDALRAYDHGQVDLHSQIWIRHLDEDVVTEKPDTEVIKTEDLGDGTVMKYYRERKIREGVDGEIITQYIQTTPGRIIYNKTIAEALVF

The target is the same in assay [2]. Kind of assay: pull-down; as a1, cells after 6 days of nitrogen depletion (0 h + N) only; His-tagged RNAP complexes collected from the soluble protein fraction, immunoblot.

These are yes or no findings as the source states them, for the method shown. Binding seen in cells or lysates may run through a third protein. Some binding calls cover weakened binding; strength is not graded here.

B1: β subunit of the RNAP core (protein, UniProt P77965 1-1102)
chain: MTNLATTMLPDLIEIQHASFHWFLEEGLIEELNSFSPISDYTGKLELHFLGKDYKLKQPKYDVDESKRRDASYSVQMYVPTRLINKETGEIKEQEVFIGDLPLMTERGTFIINGAERVIVNQIVRSPGVYYKKELDKNGRRTYSASLIPNRGAWLKFETDKNGLVYVRIDKTRKLSAQVLLKAIGLSDNEILDSLSHPEFYQKTLDKEGNPTEEEALVELYKKLRPGEPPTVSGGQQLLESRFFDPKRYDLGRVGRYKLNKKLRLNEADTTRVLTPQDILAAINYLINLEFDVGTTDDIDHLGNRRVRSVGELLQNQIRVGLNRLERIIRERMTVSESDALTPASLVNPKPLVAAIKEFFGSSQLSQFMDQTNPLAELTHKRRISALGPGGLTRERAGFAVRDIHPSHHGRICPVETPEGPNAGLIGSLATCARVNDYGFIETPYFRVESGRVRKDLDPVYLTADEEDDMRVAPGDIPTDEEGNIIGESVPIRYRQEFSTTSPEQVDYVAVSPVQIISVATSMIPFLEHDDANRALMGSNMQRQAVPLLRPERPLVGTGLEAQAARDSGMVIVSRTHGIVTYVDATEIRVQPHSPDNPAEKGEEIVYPIQKYQRSNQDTCLNQRPLVYAGEDVVPGQVLADGSATEGGELALGQNILVAYMPWEGYNYEDAILISERLVYDDVYTSIHIEKFEIEARQTKLGPEEITREIPNVGEDALRNLDEHGIIRIGAWVESGDILVGKVTPKGEADQPPEEKLLRAIFGEKARDVRDNSLRVPNGEKGRVVDVRVFTREKGDELPPGANMVVRIYVAQKRKIQVGDKMAGRHGNKGIISRILPIEDMPYLPDGRPIDIALNPLGVPSRMNVGQVFECLLGWAGENLGVRFKITPFDEMYGEEASRDTVHGLLEEASQRPNKDWVFNENHPGKIQVFDGRTGEPFDRPITVGQAYMLKLVHLVDDKIHARSTGPYSLVTQQPLGGKAQQGGQRFGEMEVWALEAYGAAYILQELLTVKSDDMQGRNEALNAIVKGKSIPRPGTPESFKVLMRELQSLGLDIAAHKVQLSEDGESADAEVDLMIDSQRRAPNRPTYESLHTEEDLEEEEV
Consider B1, for which the binding entry in assay [1] is “binds”.

B2: primary σ factor SigA (protein, UniProt P74565 1-425)
chain: MTQTKEPLTKAESAELEQEIELSQYINTDDIDDDDIDVEDLEQEVAATEGKEKKVRKIRKDAVKKKPYTEDSIRIYLQEIGRIRLLRAEEEIELARQIADLLELELIRDNLTLQLERQPSELEWGKQVWKLETAKQRLVGDKKKEPKKKDIDSYLANPDNELSLENEWSQQPNKNFAAFRRRLFLDRRAKDKMVQSNLRLVVSIAKKYMNRGLSFQDLIQEGSLGLIRAAEKFDHEKGYKFSTYATWWIRQAITRAIADQSRTIRLPVHLYETISRIKKTTKLLSQEMRRKPTEEEIAEKMEMTIEKLRFIAKSAQLPISLETPIGKEEDSRLGDFIEADGETPEDEVSKNLLREDLENVLDTLSPRERDVLRLRYGLDDGRMKTLEEIGQIFNVTRERIRQIEAKALRKLRHPNRNSILKEYIR
With B2, the binding entry in assay [2] is “binds weakly”; in assay [1], “binds”.

B3: α subunit of the RNAP core (protein, UniProt P73297 1-314)
chain: MAQFQIECVESSTRKNQQQYSKFSLEPLDRGQGTTVGNALRRVLLSNLPGAAVTAIRIAGVNHEFATILGVREDVLEIMLNMKELVLKSYTDQPQIGRLTAIGPGTVTAAQFEVPSEVEVIDPNQYIATLAEGAKLEMEFRVERGVGYRVIERGKDENSSLDFLQIDSVFMPVTKVNYTVEDIRADGMSPKDRLILDIWTNGSIQPREALSEASDIIANLFIPLKDLNELEAAHSDYQDEVNPESQIPIEELQLSVRAYNCLKRAQINSVADLLEYSQEDLLEIKNFGLKSAEEVIEALQKRLGITLPHEKAKA
In the case of B3, in assay [1], the binding entry is on record as “binds”.
